Experimental data published in PMC7819943, “Rice protein-binding microarrays: a tool to detect cis-acting elements near promoter regions in rice”.
The list shows a part of the results.

The sequences below were run against T1, OsSMF1 (Oryza sativa, UniProt Q6ZLB0 1-436) (assay: protein-binding microarray (RPBM); PBS, 2% BSA, 51.3 ng/ul salmon testes DNA, 50 uM zinc acetate, 200 nM TF, 25 C, 1 h; high values mean tight binding). Settings: protein: recombinant; tags: N-terminal polyhistidine and DsRed monomer fusion (pET32a); chain copies: 2; label: CyDye5-dUTP incorporated in the synthesized complementary strand; 3' TTTTT single-stranded linker to array surface; dsDNA, one strand shown.
T1 sequence: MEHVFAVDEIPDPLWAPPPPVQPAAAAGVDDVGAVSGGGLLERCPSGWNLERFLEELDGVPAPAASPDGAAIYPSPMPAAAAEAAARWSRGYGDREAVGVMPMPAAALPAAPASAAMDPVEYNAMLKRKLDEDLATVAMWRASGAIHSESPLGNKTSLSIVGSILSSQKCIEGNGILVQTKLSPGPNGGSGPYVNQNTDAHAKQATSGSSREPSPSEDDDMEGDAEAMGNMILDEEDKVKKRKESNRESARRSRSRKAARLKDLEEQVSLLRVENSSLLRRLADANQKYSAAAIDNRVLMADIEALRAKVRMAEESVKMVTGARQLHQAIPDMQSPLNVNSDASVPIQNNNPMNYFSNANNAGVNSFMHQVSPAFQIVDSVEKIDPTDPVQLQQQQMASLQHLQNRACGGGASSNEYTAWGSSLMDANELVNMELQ
Method in brief: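 The binding signal is fluorescence intensity per feature, in arbitrary units, read on an Axon 4000B scanner. Polyhistidine- and DsRed-tagged transcription factors (N-terminal fusions) from E. coli BL21-CodonPlus were purified on Ni–NTA and applied at 200 nM for 1 h at 25 °C to a double-stranded, BSA-blocked custom Agilent array in buffer with 50 µM zinc acetate.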
For “GATCCAGTAAGTTAGTTACTCCTAGTACGCGTAGAATGGACGGAGTCACCTAGTGCAG”, the binding signal was 3320 fluorescence intensity (a.u.). “CGGTGGAGTCATCATCAACCTCTATGCAAACGCTGCTGCCCGGAGTCACCTAGTGCAG” was tested, and the binding signal was 4230 fluorescence intensity (a.u.). “AGCTGTTCCCACTAAAGTATCCACCGAACGACGAGGTCCTCGGAGTCACCTAGTGCAG” was tested, and the binding signal was 3240 fluorescence intensity (a.u.). For “TGCAGGTCTTGGAGGGATTGGTGAGGCAGCTGACACGCGGCGGAGTCACCTAGTGCAG”, the binding signal was 4080 fluorescence intensity (a.u.). In the case of “ACTAACTGTGATGGTGAGAACTAATACTTCCTCCGTTTTACGGAGTCACCTAGTGCAG”, the binding signal is reported as 3260 fluorescence intensity (a.u.). In the case of “AAGAGTCCAGAAGAATCCACCTCACCACCACGCGCACCGGCGGAGTCACCTAGTGCAG”, the binding signal is reported as 8080 fluorescence intensity (a.u.). With “GGCGCTGTCATCCAGCCGCCCTCCCGCCGCGTAGGCGTCGCGGAGTCACCTAGTGCAG” the binding signal was 3940 fluorescence intensity (a.u.). “CGAGCCAATCAAGTTGTTTTAAGGAAAGCAAACGTACGCACGGAGTCACCTAGTGCAG” was tested, and the binding signal was 3270 fluorescence intensity (a.u.). For “AATTACTCCTCGTCATCTCGTCTCGTCTCCGCCACCGTGCCGGAGTCACCTAGTGCAG”, the binding signal was 4480 fluorescence intensity (a.u.). With “TCTTCAGGATCTCCGGCGTGACGACGAACATCTCCTCCCCCGGAGTCACCTAGTGCAG” the binding signal was 5190 fluorescence intensity (a.u.). In the case of “TGTGGGTCAGGTTGTGATATCTGTGCCCAGAAACAGTTGTCGGAGTCACCTAGTGCAG”, the binding signal is reported as 10700 fluorescence intensity (a.u.). In the case of “AGAAGCACTTACTGGGCCATGGCCCACAACATCCGGTCCACGGAGTCACCTAGTGCAG”, the binding signal is reported as 3220 fluorescence intensity (a.u.). With “CATGTGGAAAAGGGATTATGGTACAACCAAACTGTGATGACGGAGTCACCTAGTGCAG” the binding signal was 3290 fluorescence intensity (a.u.). For “CGTTCTTATCCACTCATTCCACTGTAATGGGATTGTTTGTCGGAGTCACCTAGTGCAG”, the binding signal was 3970 fluorescence intensity (a.u.). With “GCCGCCTGCGCGCCGCGGACGTGGCACCGCCGCGCCACCGCGGAGTCACCTAGTGCAG” the binding signal was 6800 fluorescence intensity (a.u.). With “GTGTGCTCTTGCATACATACTTGGGCTTATCTAGCTGCGTCGGAGTCACCTAGTGCAG” the binding signal was 5510 fluorescence intensity (a.u.). For “TTCCTCCCCACGCCGCGCTCTCCTCCCCTCTTAAACCACTCGGAGTCACCTAGTGCAG”, the binding signal was 3430 fluorescence intensity (a.u.). For “TCGTCTGGAGAGATGCCTTCATATATTATGATGTCATTGGCGGAGTCACCTAGTGCAG”, the binding signal was 7520 fluorescence intensity (a.u.). For “TTAATACGTATGAATATATAAAGTTTATATATGCATGTACCGGAGTCACCTAGTGCAG”, the binding signal was 63000 fluorescence intensity (a.u.). With “TATCAGGACGGGAGGACAATTGACACGTACATCCTCCTACCGGAGTCACCTAGTGCAG” the binding signal was 6720 fluorescence intensity (a.u.). For “CGCGCTGATTGGGCGGCGGATGAGGCGCGTGTGAGCCACGCGGAGTCACCTAGTGCAG”, the binding signal was 6670 fluorescence intensity (a.u.). For “GCTGCCGGCGCTGGAGGCCGCCGTGCGCCCGATCCGTGCGCGGAGTCACCTAGTGCAG”, the binding signal was 3290 fluorescence intensity (a.u.). With “TCTCCCCTCTCCACGCCACAGATCTCTCCCCTCTCCATCTCGGAGTCACCTAGTGCAG” the binding signal was 3670 fluorescence intensity (a.u.). With “AGTTGCAAACAGACCGAGGTGGCCACATCGGCTCTTTACTCGGAGTCACCTAGTGCAG” the binding signal was 6160 fluorescence intensity (a.u.). With “CCGGCCCATTTTGCTTCAAATGGAGGCCTATCTGTACTGCCGGAGTCACCTAGTGCAG” the binding signal was 30700 fluorescence intensity (a.u.). For “TCCAAATTCAGCCAAACTTCTCTCTCTTCCTCCTCTTACACGGAGTCACCTAGTGCAG”, the binding signal was 33800 fluorescence intensity (a.u.). With “GTTCCGCCTCGCCGTGGGGCCGCGCGGTTTCGTCACGTGGCGGAGTCACCTAGTGCAG” the binding signal was 4460 fluorescence intensity (a.u.). For “GATTGCAGCCGCCGCCTGCGTCGGTCCAGTCACCATTGGCCGGAGTCACCTAGTGCAG”, the binding signal was 6870 fluorescence intensity (a.u.). In the case of “ATATTAAATTCAACCCTACTTTTAGTATCTATTATACATACGGAGTCACCTAGTGCAG”, the binding signal is reported as 3480 fluorescence intensity (a.u.). In the case of “GACGACGCCCCTGTCCGCCGACTACGTCACGAGAGAGAAGCGGAGTCACCTAGTGCAG”, the binding signal is reported as 3170 fluorescence intensity (a.u.). For “CCCATCCACGCGTAGCTGTCGTGCCACGTCTCCCCGTGGACGGAGTCACCTAGTGCAG”, the binding signal was 11300 fluorescence intensity (a.u.). “AATACACAAATCAATCTGTGGCTTACTCACTAATTTTATCCGGAGTCACCTAGTGCAG” was tested, and the binding signal was 3210 fluorescence intensity (a.u.). In the case of “AGCATCACTGTCATCCGTTTGCAGTGCATCCTCATCCTGACGGAGTCACCTAGTGCAG”, the binding signal is reported as 3460 fluorescence intensity (a.u.). In the case of “GCTCGCCTTTTATCGCAGCCAAAGCCATGAAATTTCCCCACGGAGTCACCTAGTGCAG”, the binding signal is reported as 27500 fluorescence intensity (a.u.). With “AGTCGTTTTCTGCGTAAGCATTTTCCTCGCTGTACTCTTTCGGAGTCACCTAGTGCAG” the binding signal was 3160 fluorescence intensity (a.u.). “GCCGATGAGGTGGACAACGATAACACCCAACACTTACACTCGGAGTCACCTAGTGCAG” was tested, and the binding signal was 4170 fluorescence intensity (a.u.). For “TCGCTTTGTATTCAGCAACCAAGACCTCATTATCACCGAGCGGAGTCACCTAGTGCAG”, the binding signal was 3630 fluorescence intensity (a.u.). In the case of “AAGAGAAATTCTAGTTGTGCACATATTTGAGCTTGGACACCGGAGTCACCTAGTGCAG”, the binding signal is reported as 25500 fluorescence intensity (a.u.). In the case of “TATGTAAGCAATGTCATATCATTATCTCCACATTATTTTCCGGAGTCACCTAGTGCAG”, the binding signal is reported as 3500 fluorescence intensity (a.u.). “GTGGTGAGGCACATCATCTCCTCCTCCGTCATCGCCTCCGCGGAGTCACCTAGTGCAG” was tested, and the binding signal was 4650 fluorescence intensity (a.u.). “CACCAAACCCCAACCCACCTCCAGGTCATCCACCCACATCCGGAGTCACCTAGTGCAG” was tested, and the binding signal was 3900 fluorescence intensity (a.u.). With “CATATATGGACAGGCAACGGCATGTCGTGTTCGTACAAATCGGAGTCACCTAGTGCAG” the binding signal was 3190 fluorescence intensity (a.u.).
